According to PubChem BioAssay AID504444 (National Center for Advancing Translational Sciences (NCATS), 2011):
Screen size: about 360,000 compounds; about 7,500 (2.1%) were called active. Inconclusive results, whose numbers are uncertain, are shown with a selection of clear calls. The call rests on the fitted dose curve; in most records, active means well fitted inhibition curve with a large enough effect; inconclusive means small, poorly fitted or top-dose-only effect, or effect the other way; inactive means flat fitted curve, though single readings scatter. Potencies of inconclusive entries are doubtful fits and often do not repeat.

experiment: Nrf2 qHTS screen for inhibitors; details: A549 ARE-Fluc reporter, luciferase luminescence, 18-24 h; series mostly up to 46 µM; further: nearly all actives have a fitted effect of over 60% in size
Summary of the method: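 In this cell-based qHTS, ARE-driven firefly luciferase in A549 cells reports Nrf2 activity; the luminescent signal after BugLite lysis is the measured value, with a prior CellTiter-Fluor read for cell health.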
Potency means the concentration at half of the fitted maximal effect.

SMILES | Potency
CC(C)CCNC(=O)c1onc(CSc2ccccn2)c1C(=O)NCCC(C)C | inconclusive: 29.1 µM [falling, single point]
C=CCN1C(=O)S/C(=C/c2ccc(Sc3nc4ccccc4[nH]3)o2)C1=O | inconclusive: 23.1 µM [falling, single point]
CCc1noc(C)c1C(=O)Nc1nc2c(C)cc(C)cc2s1 | inconclusive: 0.461 µM [activator, full curve]
CC(C)c1ccc(S(=O)(=O)Nc2ccc3c(c2)OCO3)cc1 | inconclusive: 29.1 µM [falling, single point]
O=S(=O)(c1ccc(Cl)cc1)n1cnc2ccccc21 | inconclusive: 16.4 µM [activator, partial curve, poor fit]
Cc1ccc(NC(=O)CCn2c(=O)c3cccn3c3ccccc32)cc1C | inconclusive: 10.3 µM [falling, partial curve, poor fit]
O=C(c1ccc(Cl)cc1)C1CCN(CC(=O)N2CCCCC2)CC1 | inconclusive: 14.6 µM [falling, partial curve, poor fit]
c1ccc(CCNc2cnccn2)cc1 | inactive
COc1ccccc1C(=O)Nc1ccc(S(=O)(=O)NC2=NCCCCC2)cc1 | inconclusive: 13 µM [falling, partial curve, poor fit]
CCOC(=O)c1c(C)[nH]c(C2=NNC(=NC3CC3)SC2)c1C | inconclusive: 6.51 µM [activator, partial curve, poor fit]
COc1ccc2c(c1)C(SCC(=O)NCc1ccccc1)CC(C)(C)O2 (stereo not given) | inconclusive: 25.9 µM [falling, partial curve, poor fit]
COc1cc(/C=C/C(=O)OCC(=O)N2CCCCCC2)ccc1OCC#N | inconclusive: 0.651 µM [falling, partial curve, poor fit]
COc1cccc(NC(=S)N2CCCC2c2ccc(OC)c(OC)c2)c1 (stereo not given) | inconclusive: 10.3 µM [activator, partial curve, poor fit]
CN(CCCS(=O)(=O)[O-])c1ccc(/C=C/c2ccc3ccccc3[n+]2C)cc1 | inactive
C/C(=N\NS(=O)(=O)c1ccc([N+](=O)[O-])cc1)c1ccc(NC(=O)c2ccco2)cc1 | inconclusive: 4.61 µM [activator, single point]
O=C(c1cn(Cc2ccccc2)nc1-c1cccnc1)N1CCN(Cc2ccccc2)CC1 | inactive
O=S(=O)(c1cccs1)N1CCN(c2ccc(O)cc2)CC1 | inconclusive: 2.31 µM [falling, full curve]
COc1ccc(C2CC(c3cccs3)=NN2c2ccc(C=O)cc2)cc1 (stereo not given) | inactive
COc1ccc(Cl)cc1NC(=O)CSc1nnc(C2CC2)n1N | inactive
Cc1ccc(CNC(=O)C(=O)NCC2CCCN2S(=O)(=O)c2cccs2)cc1 (stereo not given) | inactive
CCOc1ccc(N2CC(c3nc4ccccc4n3CCCOc3ccccc3)CC2=O)cc1 (stereo not given) | inconclusive: 18.4 µM [falling, single point]
CCCCN(C)CCNC(=O)c1c2c(nc3ccccc13)C(=O)N(C1CCCCC1)C2 | inactive
CCCNC(=O)CCc1nnc2ccc(N3CCN(c4cccc(OC)c4)CC3)nn12 | inactive

SMILES | Potency
CCSc1nnc(NC(=O)CSc2nc3c(c(=O)n2CC)SC(C)C3)s1 (stereo not given) | active: 18.4 µM
Cc1csc(NC(=O)c2sccc2C)n1 | inconclusive: 16.4 µM [activator, partial curve]
CCNc1ccc(Br)cc(C(=O)/C=C/c2ccccc2Cl)c1=O | inconclusive: 23.1 µM [falling, single point]
COc1ccc(S(=O)(=O)N(Cc2ccco2)Cc2cc3ccccc3[nH]c2=O)cc1 | inconclusive: 20.6 µM [falling, single point]
COc1ccc(C)cc1NC(=O)CCS(=O)(=O)c1cc2c3c(c1)CCN3C(=O)CC2 | inconclusive: 14.6 µM [activator, single point]
COc1ccc(CN2CCC(CO)(Cc3cccc(C(F)(F)F)c3)CC2)cc1Cn1cccn1 | inactive
O=C(c1ccccc1)N1N=C(c2ccccc2)CC1c1ccccc1 (stereo not given) | inconclusive: 20.6 µM [falling, single point]
Cc1ccc(C(=O)O/N=C/c2ccc(N(C)C)cc2)cc1 | inactive
CCOc1ccc(Oc2nc(NCC(C)C)nc(N3CCOCC3)n2)nn1 | inconclusive: 8.2 µM [falling, partial curve, poor fit]
NC1=C(Br)C(=O)c2ncccc2C1=O | active: 10.3 µM
COc1ccc(-c2cc3onc(-c4c(Cl)cccc4Cl)c3c(=O)n2C)cc1 | inconclusive: 20.6 µM [falling, partial curve, poor fit]
O=S(=O)(NC1CC1)c1ccc(S(=O)(=O)N2CCc3ccccc32)cc1 | inconclusive: 29.1 µM [falling, single point]
O=C(CCCSc1ccccc1)Nc1cccc(CO)c1 | inconclusive: 10.3 µM [activator, partial curve]
COc1ccc(-n2nnnc2-c2ccccc2)cc1 | inactive
COc1cccc(N2CCN(CC(=O)Nc3ccccc3C(=O)NCCc3ccccc3)CC2)c1 | inconclusive: 2.06 µM [activator, full curve, poor fit]
O=C(Nc1ccc(S(=O)(=O)N2CCCC2)cc1)c1cnccn1 | inactive
CC(Oc1ccc(F)cc1)C(=O)N1CCC(c2nc3ccccc3s2)CC1 (stereo not given) | inconclusive: 20.6 µM [falling, single point]
CC1CCN(C(=O)COC(=O)C2CCN(S(=O)(=O)c3ccc4c(c3)OCCO4)CC2)CC1 | inactive
Cc1cccc(-c2nc(C#N)c(N3CCCCCC3)o2)c1 | inconclusive: 18.4 µM [activator, partial curve]
CC(C(=O)NCCCc1ccccc1)n1cccc1C(=O)c1ccccc1 (stereo not given) | inconclusive: 5.17 µM [falling, partial curve, poor fit]
CCn1c(-c2ccc(C)cc2)nn(CC(=O)NCCc2ccccc2)c1=S | active: 23.1 µM
O=C(c1cc(COc2cccc(C(F)(F)F)c2)on1)N1CCC(Oc2cccnc2)CC1 | inconclusive: 29.1 µM [falling, single point]

In the list so far, 2 have a CF3 group.
SMILES | Potency
COc1ccc(CN2CCC(CO)(Cc3cccc(C(F)(F)F)c3)CC2)cc1Cn1cccn1 | inactive
O=C(c1cc(COc2cccc(C(F)(F)F)c2)on1)N1CCC(Oc2cccnc2)CC1 | inconclusive: 29.1 µM [falling, single point]
